# Results reported in PubChem BioAssay (NCATS).
# The inconclusive results got no clear call from the source; some entries with a clear call stand among them for comparison. Where the call is inconclusive, the potency comes from a doubtful curve fit. Calls of active or inactive are those of the source. The calls were made as follows: active = clear falling dose curves in both reporters; inconclusive = both reporters move, but less clearly or upward; inactive = either reporter flat; the % is the FLuc reporter signal.
# Experiment: Cell-based coincidence reporter assay to measure PMP22 gene transcription in S16 Pmp22-F2sN cells - Confirmatory screen (AID 1508646)
# Conditions: S16 Schwann cells Pmp22-F2sN, dual luciferase, 24 h; series mostly up to 57.5 µM
# Description: Assay Provider: Jim Inglese Ph.D. National Center for Advancing Translational Science, National Institutes of Health, Rockville, MD CMT is a heterogeneous group of neurological disorders that affect approximately 1 in 2,500 people. In particular, the most common form of CMT, CMT1A is genetically linked to the duplication of the PMP22 gene which leads to Schwann cell overexpression, thus manifesting itself as a typical case of dose-sensitive diseases. To identify small molecule compounds that can mediate the expression of PMP22 we developed a phenotypic assay screening strategy by utilizing genome editing techniques to construct Schwann cell lines containing novel reporter technology to monitor the transcriptional or translational regulation of PMP22. For high sensitivity we use a bioluminescent reporter system embedded in the 3' UTR of the PMP22 gene (S16(c9) Pmp22-F2sN) to identify compounds that inhibit gene expression. […] We can further discriminate the effect of all transcriptionally active molecules on PMP22 translation or stability with an assay that incorporates a short NLuc peptide (HiBiT) at the C-terminus of expressed PMP22 (S16(f8) PMP22-HiBiT) allowing alpha complementation and luminescence detection of membrane-associated PMP22 protein. These assays were screened against the NCATS Sytravon Library Collection. Miniaturization of these assays to 1536-well plate format for quantitative high throughput screening (qHTS) yielded rich data sets immediately from the qHTS assay (S16(c9) Pmp22-F2sN), when compared with data from a cell viability assay (Cell TiterGlo) to identify compounds that decreased the output signals through cellular toxicity to streamline the selection process of actives for subsequent characterization using the HiBiT assay (S16(f8) PMP22-HiBiT).
# Cell-based coincidence reporter assay to measure PMP22 gene transcription in S16 Pmp22-F2sN cells PROTOCOL TABLE (format as described by Inglese J, Shamu CE and Guy RK. 2007) SEQUENCE No. (e.g., 1, 2, 3, etc.); PARAMETER (e.g., Cells, Incubation, Reagent, etc.); VALUE and DESCRIPTION. 1. Cells. Add 500-1,000 cells in 4 uL in growth media (DMEM High Glucose, No Phenol Red media + 10% heat-inactivated FBS + 1% Pen/Strep supplemented media) per well into Greiner 1536-well white/solid bottom high base, TC-treated plates. 2. Compounds. Library compounds and controls added at 23nL per well, transferred by Pin Tool. 3. Incubation. Incubate plates at 37C, 5% CO2, 95% RH for 24 h. 4. Reagent. Add 3.5uL Nano-Glo Dual-Luciferase Reporter Assay System reagent 1: Lysis and FLuc reagent per well of Greiner 1536-well plates. 5. Incubation. Incubate plates at room temperature for 10 min., protect from light. 6. Detector. FLuc luminescence measured using CCD-based camera (Viewlux). 7. Reagent. Add 3.5uL Nano-Glo Dual-Luciferase Reporter Assay System reagent 2: Stop&Glo reagent per well of Greiner 1536-well plates. 8. Incubation. Incubate plates at room temperature for 10 min., protect from light. 9. Detector. NLuc luminescence measured using CCD-based camera (Viewlux). NOTES (numbers refer to Sequence numbers above; values are from representative experiments) 6. Luminescence Read #1 (FLuc): Clear filter; Exposure = 10 sec, Gain = High, Speed = Slow, Binning = 2X 9. Luminescence Read #2 (NLuc): Clear filter; Exposure = 1 sec, Gain = High, Speed = Slow, Binning = 2X REFERENCES: 1. Inglese J, Shamu CE and Guy RK, Reporting data from high throughput screening of small molecule libraries, Nature Chemical Biology, 2007, 3(8): 438-441. doi.org/10.1038/nchembio0807-438 2. Yasgar A, Shinn P, Jadhav A, Auld DS, Michael S, Zheng W, Austin CP, Inglese J and Simeonov A, Compound Management for Quantitative High-Throughput Screening. J. Assoc. Lab. Auto., 2008, 13: 79-89. doi: 10.1016/j.jala.2007.12.004
# Potency is read from the fitted curve at half-maximal effect.
row,SMILES,Potency
1,O=c1oc2ccccc2cc1-c1cn2cc(Cc3ccc(Br)cc3)sc2n1,"inconclusive: 21.7 µM [phenotype inactive, partial curve, poor fit]"
2,CCc1ccc(C2CC(=O)c3c([nH]c(C(=O)OCc4ccc(C)cc4)c3C)C2)cc1 (stereo not given),"inconclusive: 15.3 µM [phenotype inactive, partial curve, poor fit]"
3,O=C(CSc1nc2cc(C(=O)NC3CCCC3)ccc2c(=O)n1CC1CCCO1)c1cccc(Cl)c1 (stereo not given),"inconclusive: 24.3 µM [phenotype inactive, partial curve]"
4,COc1ccc(NC(=O)Cn2c(=O)cc(C)c3c(C)nn(C)c32)cc1,inactive
5,Cc1ccc(/C=C/c2onc(C)c2S(=O)(=O)N2CCC(C(=O)NCC(C)c3ccccc3)CC2)cc1 (stereo not given),"inconclusive: 24.3 µM [phenotype inactive, single point]"
6,Cc1ccc(C)c(NC(=O)Cn2c(=O)n(Cc3ccccc3)c(=O)c3oc4ccccc4c32)c1,"inconclusive: 24.3 µM [phenotype inactive, partial curve]"
7,Cn1nnnc1SCCCNCc1cccc(OCc2ccccc2)c1,inactive
8,CCOc1ccccc1CNC(=O)CCn1c(=O)c2cccn2c2ccc(F)cc21,"inconclusive: 15.3 µM [phenotype inactive, full curve, poor fit]"
9,CCOc1ccccc1NC(=O)C(=O)NCCc1sc(-c2cccc(F)c2)nc1C,"inconclusive: 17.2 µM [phenotype inactive, partial curve, poor fit]"
10,COc1ccc(NC(=O)c2nc(S(=O)(=O)Cc3ccc(C)cc3)ncc2Cl)cc1,active: 5.77 µM
11,CCOCCCn1c(=N)c(C(=O)NC(C)c2ccccc2)cc2c(=O)n3cccc(C)c3nc21 (stereo not given),"inconclusive: 21.7 µM [phenotype inactive, partial curve]"
12,Cc1ccc(NS(=O)(=O)c2cc(Br)cc3c2N(C(=O)C2CC2)CC3)cc1C,"inconclusive: 21.7 µM [phenotype inactive, partial curve]"
13,Cc1c(C(=O)OC2CCCCC2)[nH]c2c1C(=O)CC(c1ccccc1)C2 (stereo not given),"inconclusive: 24.3 µM [phenotype inactive, partial curve, poor fit]"
14,COCCCNC(=O)c1ccc2c(c1)N=C(C)c1c(C)ccc(C)c1S2,active: 0.306 µM
15,Cc1c(Cl)cccc1NC(=O)c1oc2ccc(S(=O)(=O)N3CCC4(CC3)OCCO4)cc2c1C,"inconclusive: 7.69 µM [phenotype inactive, full curve, poor fit]"
16,CCOc1ccccc1NC(=O)c1c(NCc2ccc(C)o2)sc2c1CCCCC2,"inconclusive: 21.7 µM [phenotype inactive, partial curve, poor fit]"
17,CCS(=O)(=O)c1ncc(Cl)c(C(=O)NCc2ccccc2)n1,active: 6.9 µM
18,CCOC(=O)c1ccc(N2C(=O)c3n[nH]c(-c4ccco4)c3C2c2ccc(O)c(OC)c2)cc1 (stereo not given),active: 19.3 µM
19,CCCCCOc1ccccc1CN1C(=O)C(=O)c2cc(C)ccc21,"inconclusive: 24.3 µM [phenotype inactive, partial curve]"
20,COc1ccc(Nc2c3c(nc4ccc(NC(=O)c5cc(Cl)ccc5OC)cc24)CCCC3)cc1OC,active: 9.68 µM

# Ordered by SMILES length (descending): three of the compounds above
row,SMILES,Potency
3,O=C(CSc1nc2cc(C(=O)NC3CCCC3)ccc2c(=O)n1CC1CCCO1)c1cccc(Cl)c1 (stereo not given),"inconclusive: 24.3 µM [phenotype inactive, partial curve]"
6,Cc1ccc(C)c(NC(=O)Cn2c(=O)n(Cc3ccccc3)c(=O)c3oc4ccccc4c32)c1,"inconclusive: 24.3 µM [phenotype inactive, partial curve]"
10,COc1ccc(NC(=O)c2nc(S(=O)(=O)Cc3ccc(C)cc3)ncc2Cl)cc1,active: 5.77 µM

# Going on with the list.

row,SMILES,Potency
1,CCCCCn1c(=N)n(CC(O)COc2cccc(C)c2)c2ccccc21 (stereo not given),active: 16.3 µM
2,Cc1[nH]c2ccccc2c1C1(O)C(=O)N(Cc2ccccc2)c2ccc(Cl)cc21 (stereo not given),"inconclusive: 24.3 µM [phenotype inactive, partial curve]"
3,Cc1ccc(CS(=O)(=O)c2ncc(Cl)c(C(=O)Nc3nc4ccc(F)cc4s3)n2)cc1,active: 16.5 µM
4,Cc1cc(C)cc(NC(=O)c2ccc3oc(=O)c(S(=O)(=O)c4ccc(F)cc4)cc3c2)c1,inactive
5,Cc1cccc(-c2nnn3c2nc(NCc2ccc4c(c2)OCO4)c2ccccc23)c1,active: 15.3 µM
6,O=C(Cn1ncc2c([nH]c3ccccc32)c1=O)Nc1cccc(C(F)(F)F)c1,inactive
7,Cc1ccc(-n2c3c(cc(C(=O)Nc4ccccc4C(N)=O)c2=O)C(=O)CC(C)(C)C3)cc1,inactive
8,CCOC(=O)c1c(C)oc2nc(C)nc(NCCc3ccc(OCC)cc3)c12,"inconclusive: 12.2 µM [phenotype inactive, full curve, poor fit]"
9,CCc1ccccc1NC(=O)c1cc2c(Cl)nc3ccccc3c2s1,inactive
10,O=C(CSc1ncc2c(n1)-c1ccccc1N(Cc1ccc(F)cc1)S2(=O)=O)NCCc1ccccc1,"inconclusive: 21.7 µM [phenotype inactive, partial curve]"
11,Cc1ccc(C(=O)c2oc3ccccc3c2NC(=O)c2nc(S(C)(=O)=O)ncc2Cl)cc1F,active: 13.1 µM
12,COc1ccccc1Nc1ncnc2scc(-c3ccc(F)cc3)c12,inactive
13,COc1ccc(Cn2c(SCC(=O)N(C)Cc3ccccc3)nc3ccccc32)cc1,inactive
14,CCOc1ccccc1C(=O)Nc1c(C(=O)Nc2ccc(F)cc2)oc2ccccc12,active: 5.59 µM
15,COc1ccc(OCC(=O)NCc2ccc3c(c2)CCN3C(=O)c2cccc(C)c2)cc1,"inconclusive: 10.9 µM [phenotype inactive, full curve]"
16,Cc1cc(C)cc(-n2c(SCC(=O)Nc3nnc(C)s3)nc3c([nH]c4ccccc43)c2=O)c1,"inconclusive: 43.2 µM [phenotype inactive, single point]"
17,CC(=O)c1c(C)oc2ccc(N(C(=O)Oc3ccccc3)S(=O)(=O)c3ccc(C(C)(C)C)cc3)cc12,"inconclusive: 9.68 µM [phenotype inactive, full curve, poor fit]"
18,O=C(CCS(=O)(=O)c1nc(-c2cccs2)cc(C(F)(F)F)n1)Nc1ccc(F)c(Cl)c1,active: 12.9 µM
19,CCOc1ccc(C(=O)c2cnc3ccc(Cl)cc3c2S(=O)(=O)c2ccc(C)cc2)cc1,active: 19.3 µM
20,CCCn1c2ccccc2c2cnn(CC(=O)NCC3CCN(Cc4ccc(C)cc4)CC3)c(=O)c21,"inconclusive: 24.3 µM [phenotype inactive, partial curve]"
